The target of assay [1] is T1, endogenous perilipin (human (endogenous in SGBS)) (UniProt O60240).
T1 sequence: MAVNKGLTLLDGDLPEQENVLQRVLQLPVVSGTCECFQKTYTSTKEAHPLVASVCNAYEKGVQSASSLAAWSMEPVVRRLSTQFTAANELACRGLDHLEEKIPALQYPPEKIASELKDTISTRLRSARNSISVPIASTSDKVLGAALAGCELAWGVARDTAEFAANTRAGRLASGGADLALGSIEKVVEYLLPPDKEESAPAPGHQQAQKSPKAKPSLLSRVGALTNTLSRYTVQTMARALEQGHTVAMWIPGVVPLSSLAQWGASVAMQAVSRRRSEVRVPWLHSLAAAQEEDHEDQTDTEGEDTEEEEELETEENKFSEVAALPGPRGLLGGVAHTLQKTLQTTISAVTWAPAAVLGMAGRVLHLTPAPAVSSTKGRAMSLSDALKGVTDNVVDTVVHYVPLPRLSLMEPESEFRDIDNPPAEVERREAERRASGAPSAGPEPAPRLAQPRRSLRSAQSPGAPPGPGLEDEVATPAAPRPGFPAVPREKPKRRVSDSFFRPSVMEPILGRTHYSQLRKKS
Briefly: co-IP; SGBS adipocytes transduced with Seipin-MycHis, differentiated seven days with doxycycline; Pierce IP Lysis Buffer; endogenous perilipin precipitated with anti-perilipin mAb and Protein A beads; blots for Myc and seipin.

Assay [2] has as its target T2, FLAG-perilipin (in HEK293 cells) (UniProt O60240).
T2 sequence: T1 sequence
Briefly: co-IP; HEK293 cells co-transfected; lysis in 50 mM n-octyl-b-D-glucopyranoside, 50 mM Tris pH 6.8, 150 mM NaCl, 1 mM EDTA; anti-FLAG-agarose 2 h at 4 °C, elution with 3xFLAG peptide; blots for Myc, FLAG and calnexin.

Assay [3] addresses T3, Myc-perilipin-YFPc (UniProt O60240).
T3 sequence: T1 sequence
Nature of the assay: split reporter; BiFC with YFP fragments in differentiating 3T3-L1 cells; 37 °C 48 h, then 32 °C 20 h and 30 °C 4 h; fixed, confocal microscopy.

The target in assay [4] is T4, seipin-Myc (UniProt Q96G97 1-398).
T4 construct: seipin (product of BSCL2) in the pcDNA3.1 MycHis vector; also called seipin dodecamers; not shown: Myc, C-terminal, kept; copies: 12
T4 sequence (looked up): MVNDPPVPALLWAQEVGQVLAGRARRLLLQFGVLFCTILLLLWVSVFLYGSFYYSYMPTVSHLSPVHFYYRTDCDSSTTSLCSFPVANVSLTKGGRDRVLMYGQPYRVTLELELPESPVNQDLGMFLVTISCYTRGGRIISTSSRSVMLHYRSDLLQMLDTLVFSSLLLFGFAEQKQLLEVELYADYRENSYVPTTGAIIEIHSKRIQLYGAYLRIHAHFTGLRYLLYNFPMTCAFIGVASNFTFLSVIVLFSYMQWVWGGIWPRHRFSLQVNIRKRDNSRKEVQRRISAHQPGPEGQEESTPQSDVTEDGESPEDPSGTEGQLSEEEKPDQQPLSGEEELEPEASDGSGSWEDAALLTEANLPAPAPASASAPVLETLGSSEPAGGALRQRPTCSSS
Nature of the assay: co-IP; FLAG-perilipin and seipin-Myc co-expressed in tsA 201 cells; proteins isolated and eluted from anti-Myc agarose; perilipin in the eluates detected on blots by its FLAG tag.

This note sets out measurements from article PMC6531784, “Discovering metabolic disease gene interactions by correlated effects on cellular morphology” (Molecular Metabolism, 2019).

No constants are given. Whether binding was seen depends on the method and setting. Binding seen in cells or lysates may run through a third protein. Some results given as binding are weak or reduced against the parent protein; the word gives no strength. For some of these results: Where a sequence is shown, tags or fusion partners need not be part of it.

As to “Seipin-MycHis (pLXI-Seipin-MycHis) (from UniProt Q96G97 1-398)”, the binding result in assay [1] is listed as “binds”.

Take “Wild-type Myc-seipin (WT) (from UniProt Q96G97 1-398)”: in assay [2], the binding entry was “binds”.

In the case of “FLAG-seipin-YFPn (from UniProt Q96G97 1-398)”, in assay [3], the binding entry is reported as “binds”.

B1: FLAG-perilipin (in tsA 201 cells) (natural protein, UniProt O60240 1-522, looked up)
chain: T1 sequence
notes: perilipin (product of PLIN1) in the pCMV3xFLAG vector; Same construct as m7, other host cells
With B1, the binding entry in assay [4] is given as “binds”.
